These are yes or no findings as the source states them, for the method shown. Binding seen in cells or lysates may run through a third protein. Binding calls can cover weak binding; strength is not graded here. Sequences can lack the tags named with a protein.

This assay has as its target T1, HA-DLC1 (deleted in liver cancer-1) (human) (UniProt Q96QB1).
T1 sequence: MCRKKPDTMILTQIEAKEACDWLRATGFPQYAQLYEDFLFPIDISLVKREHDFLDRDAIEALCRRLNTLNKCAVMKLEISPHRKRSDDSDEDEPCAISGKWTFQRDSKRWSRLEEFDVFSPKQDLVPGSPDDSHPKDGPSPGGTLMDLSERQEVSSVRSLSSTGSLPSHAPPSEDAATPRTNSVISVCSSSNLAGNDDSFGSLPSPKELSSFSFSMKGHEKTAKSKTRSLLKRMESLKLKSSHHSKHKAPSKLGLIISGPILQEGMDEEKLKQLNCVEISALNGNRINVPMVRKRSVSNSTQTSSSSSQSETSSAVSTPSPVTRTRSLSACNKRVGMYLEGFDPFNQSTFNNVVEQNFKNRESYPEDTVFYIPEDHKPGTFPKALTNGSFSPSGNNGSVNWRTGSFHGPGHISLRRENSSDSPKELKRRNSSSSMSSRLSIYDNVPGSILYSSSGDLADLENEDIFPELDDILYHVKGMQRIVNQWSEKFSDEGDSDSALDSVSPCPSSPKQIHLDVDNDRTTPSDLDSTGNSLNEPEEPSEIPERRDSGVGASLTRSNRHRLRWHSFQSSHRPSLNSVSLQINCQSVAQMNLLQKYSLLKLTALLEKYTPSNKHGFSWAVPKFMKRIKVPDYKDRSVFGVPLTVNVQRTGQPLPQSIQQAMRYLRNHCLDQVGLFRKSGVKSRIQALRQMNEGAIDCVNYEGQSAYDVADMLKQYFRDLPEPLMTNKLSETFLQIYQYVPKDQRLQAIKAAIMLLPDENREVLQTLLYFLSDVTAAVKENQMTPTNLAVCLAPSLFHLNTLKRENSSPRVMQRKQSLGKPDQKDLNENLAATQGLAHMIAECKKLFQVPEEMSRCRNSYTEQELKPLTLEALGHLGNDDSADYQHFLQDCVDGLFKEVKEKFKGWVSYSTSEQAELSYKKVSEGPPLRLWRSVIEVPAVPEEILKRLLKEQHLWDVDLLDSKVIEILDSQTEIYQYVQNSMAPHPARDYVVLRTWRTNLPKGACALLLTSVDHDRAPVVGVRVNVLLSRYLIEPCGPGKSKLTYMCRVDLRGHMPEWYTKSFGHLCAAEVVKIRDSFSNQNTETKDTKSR
Kind of assay: co-IP; HEK-293T; Flag-tagged full-length GRP78 or truncations with HA-DLC1.

As for “GRP78 ΔN truncation (SBD domain), tagged with Flag (human) (domain or fragment)”, the binding result is “binds”.

The values are drawn from PMC9515611.
